Experimental data reported in article PMC12864892.
Results are given in words; binding and its absence hold for the method and conditions named. Binding seen in cells or lysates may run through a third protein. A yes stands for co-enrichment or nearness to the bait. Other partners may have been found.

The chains behind the UniProt entries cited, without tags or fusion partners. Residues count along the entry.
UniProt P10909, residues 23-449: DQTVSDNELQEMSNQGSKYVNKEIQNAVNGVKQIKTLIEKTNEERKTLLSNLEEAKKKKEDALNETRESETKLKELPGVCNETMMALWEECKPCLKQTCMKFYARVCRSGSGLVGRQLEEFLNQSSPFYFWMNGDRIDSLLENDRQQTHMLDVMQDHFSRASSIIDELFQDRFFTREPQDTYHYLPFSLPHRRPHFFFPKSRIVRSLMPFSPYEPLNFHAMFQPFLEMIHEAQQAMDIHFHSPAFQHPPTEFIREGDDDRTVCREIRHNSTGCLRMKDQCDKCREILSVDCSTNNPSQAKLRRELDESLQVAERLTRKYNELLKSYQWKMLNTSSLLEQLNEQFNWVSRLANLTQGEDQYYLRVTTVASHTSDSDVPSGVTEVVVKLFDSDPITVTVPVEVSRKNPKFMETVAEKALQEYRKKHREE

Biological target: clusterin (CLU), endogenous in TNBC cells (human (endogenous in MDA-MB-468 and MDA-MB-231)) (UniProt P10909)
Test: affinity purification with mass spectrometry; Co-IP of CLU from MDA-MB-468 cells combined with mass spectrometry (CLU interactome)

B1: plakophilin 3 (PKP3), endogenous in TNBC cells (protein, UniProt Q9Y446 1-797)
chain: MQDGNFLLSALQPEAGVCSLALPSDLQLDRRGAEGPEAERLRAARVQEQVRARLLQLGQQPRHNGAAEPEPEAETARGTSRGQYHTLQAGFSSRSQGLSGDKTSGFRPIAKPAYSPASWSSRSAVDLSCSRRLSSAHNGGSAFGAAGYGGAQPTPPMPTRPVSFHERGGVGSRADYDTLSLRSLRLGPGGLDDRYSLVSEQLEPAATSTYRAFAYERQASSSSSRAGGLDWPEATEVSPSRTIRAPAVRTLQRFQSSHRSRGVGGAVPGAVLEPVARAPSVRSLSLSLADSGHLPDVHGFNSYGSHRTLQRLSSGFDDIDLPSAVKYLMASDPNLQVLGAAYIQHKCYSDAAAKKQARSLQAVPRLVKLFNHANQEVQRHATGAMRNLIYDNADNKLALVEENGIFELLRTLREQDDELRKNVTGILWNLSSSDHLKDRLARDTLEQLTDLVLSPLSGAGGPPLIQQNASEAEIFYNATGFLRNLSSASQATRQKMRECHGLVDALVTSINHALDAGKCEDKSVENAVCVLRNLSYRLYDEMPPSALQRLEGRGRRDLAGAPPGEVVGCFTPQSRRLRELPLAADALTFAEVSKDPKGLEWLWSPQIVGLYNRLLQRCELNRHTTEAAAGALQNITAGDRRWAGVLSRLALEQERILNPLLDRVRTADHHQLRSLTGLIRNLSRNARNKDEMSTKVVSHLIEKLPGSVGEKSPPAEVLVNIIAVLNNLVVASPIAARDLLYFDGLRKLIFIKKKRDSPDSEKSSRAASSLLANLWQYNKLHRDFRAKGYRKEDFLGP
  binding: binds
